In patent US20260226222A1, “PROCESS FOR MANUFACTURING POLYURETHANE FOAM” (Galata Chemicals, LLC, priority 2023, published 2026):

Experiment: Fog Test (VOC content, DIN 75201-B)
Conditions: for VOCs content as weight loss of Test Specimen: 100° C. for 16 hours, same amount of tin (0.029 g); for VOC content: Fog Test, same amount of tin

Row | Substance | VOCs content as weight loss of Test Specimen | VOC content
1 | Dimethyltin dineodecanoate | 37 ppm | 37 ppm
2 | Dimethyltin diricinoleate | 12 ppm | 12 ppm
3 | Stannous diricinoleate | 9 ppm | 9 ppm
